Reference: publication PMC4265162
Results are given in words; binding and its absence hold for the method and conditions named. Binding seen in cells or lysates may run through a third protein. A result given as binding can be weak or reduced; the word gives no strength.

Tests used:
Experiment in all cases: split reporter; firefly luciferase complementation imaging; N-Luc and C-Luc fusions co-expressed in Nicotiana benthamiana leaves
[1] = molecular target: T1, OsPIP1;3, plasma membrane intrinsic protein (aquaporin) (rice) (UniProt Q9SXF8)
T1 sequence: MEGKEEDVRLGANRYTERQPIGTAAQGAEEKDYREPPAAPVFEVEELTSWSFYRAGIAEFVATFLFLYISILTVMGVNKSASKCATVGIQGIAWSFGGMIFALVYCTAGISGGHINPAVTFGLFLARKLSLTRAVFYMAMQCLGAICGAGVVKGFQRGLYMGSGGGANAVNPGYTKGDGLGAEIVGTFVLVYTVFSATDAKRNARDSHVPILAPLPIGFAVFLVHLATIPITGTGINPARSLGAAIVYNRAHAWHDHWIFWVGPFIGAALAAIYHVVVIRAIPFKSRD

[2] = molecular target: T2, OsPIP2;3, plasma membrane intrinsic protein (aquaporin) (rice) (UniProt Q7XUA6)
T2 sequence: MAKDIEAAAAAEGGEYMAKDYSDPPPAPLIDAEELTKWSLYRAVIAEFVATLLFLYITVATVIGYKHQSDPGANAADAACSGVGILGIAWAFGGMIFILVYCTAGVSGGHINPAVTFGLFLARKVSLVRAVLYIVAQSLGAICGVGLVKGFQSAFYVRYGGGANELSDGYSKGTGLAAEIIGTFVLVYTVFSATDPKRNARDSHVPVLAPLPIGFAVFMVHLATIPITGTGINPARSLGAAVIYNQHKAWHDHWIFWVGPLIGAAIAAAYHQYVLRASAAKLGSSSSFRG

[3] = molecular target: T3, OsPIP1;1, plasma membrane intrinsic protein (aquaporin) (rice) (UniProt Q6EU94)
T3 sequence: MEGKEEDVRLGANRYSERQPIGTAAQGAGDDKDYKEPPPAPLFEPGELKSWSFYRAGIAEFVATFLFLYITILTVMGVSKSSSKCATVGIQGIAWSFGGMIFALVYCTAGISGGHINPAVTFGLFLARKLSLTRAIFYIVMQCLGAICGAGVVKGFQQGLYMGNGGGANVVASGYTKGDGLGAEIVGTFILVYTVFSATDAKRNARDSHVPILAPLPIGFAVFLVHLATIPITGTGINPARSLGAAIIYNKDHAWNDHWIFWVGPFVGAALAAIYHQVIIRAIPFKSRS

binding [1]: binds
binding [2]: binds
binding [3]: binds
Substance: Leaf Panicle 2 (LP2), leucine-rich repeat receptor-like kinase (rice (Oryza sativa))
